Test results: article doi:10.1101/617910
Results are given in words; binding and its absence hold for the method and conditions named. Binding calls can cover weak binding; strength is not graded here.

By UniProt entry, the sequences of proteins in these tests, tags left out. Where a name states a change or a piece, a line headed by the entry shows the natural chain unless it says otherwise.
UniProt P0C0W9: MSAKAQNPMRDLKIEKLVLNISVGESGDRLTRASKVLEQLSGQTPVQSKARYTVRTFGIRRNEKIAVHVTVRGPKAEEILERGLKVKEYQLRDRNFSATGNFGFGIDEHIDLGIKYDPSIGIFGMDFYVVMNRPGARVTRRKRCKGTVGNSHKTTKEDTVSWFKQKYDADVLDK
UniProt P41819: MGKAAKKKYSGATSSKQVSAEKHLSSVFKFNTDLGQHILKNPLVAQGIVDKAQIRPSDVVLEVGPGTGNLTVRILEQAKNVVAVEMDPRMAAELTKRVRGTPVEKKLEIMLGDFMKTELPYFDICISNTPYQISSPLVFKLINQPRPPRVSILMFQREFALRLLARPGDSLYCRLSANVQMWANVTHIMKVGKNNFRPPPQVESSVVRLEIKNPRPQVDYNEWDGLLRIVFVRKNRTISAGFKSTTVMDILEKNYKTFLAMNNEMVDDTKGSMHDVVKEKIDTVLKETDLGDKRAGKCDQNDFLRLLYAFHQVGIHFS

Molecular target: Rpl11 (yeast (endogenous in the purified pre-ribosomes)) (UniProt P0C0W9)
Assay: cryo-EM structure

Dim1 (from UniProt P41819 1-318)
binding: binds
